Results on 1 sequence are retold here after article PMC5996148.

Some test systems named below: IFNW1 (human); IFT81 (human); IGF2 (human); IGHA1 (human); IGHG1 (human); IGHM (human); IGJ (human); IGKV1-5 (human); IGL@ (human); IGLC1 (human).
Holding throughout (experiment): protein microarray (ProtoArray v5.0), streptavidin-Alexa Fluor 647
Common to all, as to details: 3'-biotin; 20 mM Tris (pH 7.5), 5 mM MgCl2, 100 mM KCl, 0.1% Tween-20, A/T-rich and random oligonucleotide blockers; temperature not stated; high values mean tight binding

Values joined by “and” are separate entries in the source; they are usually repeats but may differ in a detail not shown here. Equal entries are not always repeated. This is one part of the list.

For “GGGAGGCTGAGGCAGG [G4-1 biotinylated (PQS2)]”, the binding signal with IFNW1 (human) is -0.331 z-score; with IFT81 (human) it was -0.292 z-score; in the assay on IGF2 (human), -0.251 z-score; in the assay with IGHA1 (human) it was -0.341 z-score; in the assay with IGHG1 (human), -0.278 z-score; in the assay with IGHM (human), -0.33 z-score. For the same sequence, the binding signal is -0.326 z-score with IGJ (human); -0.316 z-score and -0.288 z-score in the assay on IGKV1-5 (human); -0.355 z-score in the assay on IGL@ (human); -0.308 z-score in the assay with IGLC1 (human).
